Binding data for one substance are collected here from article PMC4662715.

Assay [1] deals with T1, CCR1-rHDL (human C-C chemokine receptor 1 with C-terminal 1D4 tag, in reconstituted high density lipoprotein) (human) (UniProt P32246).
T1 sequence: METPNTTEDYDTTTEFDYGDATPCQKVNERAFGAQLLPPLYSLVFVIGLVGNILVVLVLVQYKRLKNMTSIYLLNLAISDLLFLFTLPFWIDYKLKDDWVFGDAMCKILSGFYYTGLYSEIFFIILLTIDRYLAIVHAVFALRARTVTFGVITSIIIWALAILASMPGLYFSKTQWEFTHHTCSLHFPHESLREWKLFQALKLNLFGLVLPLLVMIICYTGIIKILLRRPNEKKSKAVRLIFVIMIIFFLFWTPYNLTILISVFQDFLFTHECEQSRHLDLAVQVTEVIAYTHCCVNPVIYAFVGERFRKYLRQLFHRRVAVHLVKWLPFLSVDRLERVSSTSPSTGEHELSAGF
Description: transferred cross-saturation (TCS) NMR, methyl-directed; 10 μM [u-2H, (Ile-, Leu-, Val-13C1H3)] MIP-1α variant with about 1/10 molar equivalent of CCR1-rHDL; both purified.

In assay [2] the target is T1, CCR1-rHDL (human C-C chemokine receptor 1 with C-terminal 1D4 tag, in reconstituted high density lipoprotein) (human). Description: transferred cross-saturation (TCS) NMR, amide-directed; 50 μM [u-2H,15N] MIP-1α variant with about 3/50 molar equivalent of CCR1-rHDL or CCR5-rHDL; 20 mM HEPES, pH 6.0, 100 mM NaCl, 75 % D2O, 5 % glycerol; 15 °C; empty-rHDL control subtracted (ΔRR); spectra reconstructed by Co-ANAFOR; both purified.

Results are given in words; binding and its absence hold for the method and conditions named. Binding calls can cover weak binding; strength is not graded here. Sequences can lack the tags named with a protein.

Consider MIP-1α variant (P8A/F13Y/E67Q) (ligand), for which the binding entry in assay [1] and in assay [2] was “binds” throughout.
